In experiment [1] the target is amyloid plaques in human AD brain tissue (human) (UniProt P05067). The experiment in a line: immunostaining of fresh frozen human AD frontal cortex.
The target in experiment [2] is AβpE3 in amyloid plaques of APPPS1-21 mouse brain (human) (UniProt P05067). Briefly: anti-hIgG immunohistochemistry after in vivo dosing of APPPS1-21 mice.

Amino acid sequences for entries named in this document (tags omitted). Residues count along the entry.
UniProt P05067, residues 674-713: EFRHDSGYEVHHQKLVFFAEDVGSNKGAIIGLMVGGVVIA

No constants are given. Whether binding was seen depends on the method and setting. Some binding calls cover weakened binding; strength is not graded here.

B1: Comparator Ab1 (antibody, human IgG1, kappa, V domains shown)
VH: QVQLVQSGAEVKKPGSSVKVSCKASGYDFTRYYINWVRQAPGQGLEWMGWINPGSGNTKYNEKFKGRVTITADESTSTAYMELSSLRSEDTAVYYCAREGITVYWGQGTTVTVSS
VL: DIVMTQTPLSLSVTPGQPASISCKSSQSLLYSRGKTYLNWLLQKPGQSPQLLIYAVSKLDSGVPDRFSGSGSGTDFTLKISRVEAEDVGVYYCVQGTHYPFTFGQGTKLEIKR
As for B1, the binding result in experiment [1] and in experiment [2] was “binds” in each case.

Source of the values: patent US20250101087A1.
